# These are yes or no findings as the source states them, for the method shown. In cells and extracts the contact can be indirect. These calls come from enrichment with a bait or labelling near it, and not all partners need be listed. For part of these data: A no says only that the protein was not detected with the bait. For part of these data: Where a sequence is shown, tags or fusion partners need not be part of it.
# B1: poly(A) binding protein PAB2 (protein, UniProt P42731 1-629)
# chain: MAQVQLQGQTPNGSTAAVTSAPATSGGATATQFGNTSLYVGDLDFNVTDSQLFDAFGQMGTVVTVRVCRDLVTRRSLGYGYVNFTNPQDAARAIQELNYIPLYGKPIRVMYSHRDPSVRRSGAGNIFIKNLDESIDHKALHDTFSSFGNIVSCKVAVDSSGQSKGYGFVQYANEESAQKAIEKLNGMLLNDKQVYVGPFLRRQERDSTANKTKFTNVYVKNLAESTTDDDLKNAFGEYGKITSAVVMKDGEGKSKGFGFVNFENADDAARAVESLNGHKFDDKEWYVGRAQKKSERETELRVRYEQNLKEAADKFQSSNLYVKNLDPSISDEKLKEIFSPFGTVTSSKVMRDPNGTSKGSGFVAFATPEEATEAMSQLSGKMIESKPLYVAIAQRKEDRRVRLQAQFSQVRPVAMQPSVGPRMPVYPPGGPGIGQQMFYGQAPPAMIPPQPGYGYQQQLVPGMRPGGGPVPSFFMPMVQPQQQRPGGGRRPGGIQHSQQQNPMMQQQMHPRGRMFRYPQGRGGSGDVPPYDMGNNMPLTIGALASNLSNATPEQQRTMLGEVLYPLVEQVEAESAAKVTGMLLEMDQTEVLHLLESPEALKAKVAEAMDVLRSVAAGGATEQLASLNLS
# B2: poly(A) binding protein PAB4 (protein, UniProt O22173 1-662)
# chain: MAQVQAPSSHSPPPPAVVNDGAATASATPGIGVGGGGDGVTHGALCSLYVGDLDFNVTDSQLYDYFTEVCQVVSVRVCRDAATNTSLGYGYVNYSNTDDAEKAMQKLNYSYLNGKMIRITYSSRDSSARRSGVGNLFVKNLDKSVDNKTLHEAFSGCGTIVSCKVATDHMGQSRGYGFVQFDTEDSAKNAIEKLNGKVLNDKQIFVGPFLRKEERESAADKMKFTNVYVKNLSEATTDDELKTTFGQYGSISSAVVMRDGDGKSRCFGFVNFENPEDAARAVEALNGKKFDDKEWYVGKAQKKSERELELSRRYEQGSSDGGNKFDGLNLYVKNLDDTVTDEKLRELFAEFGTITSCKVMRDPSGTSKGSGFVAFSAASEASRVLNEMNGKMVGGKPLYVALAQRKEERRAKLQAQFSQMRPAFIPGVGPRMPIFTGGAPGLGQQIFYGQGPPPIIPHQPGFGYQPQLVPGMRPAFFGGPMMQPGQQGPRPGGRRSGDGPMRHQHQQPMPYMQPQMMPRGRGYRYPSGGRNMPDGPMPGGMVPVAYDMNVMPYSQPMSAGQLATSLANATPAQQRTLLGESLYPLVDQIESEHAAKVTGMLLEMDQTEVLHLLESPEALNAKVSEALDVLRNVNQPSSQGSEGNKSGSPSDLLASLSINDHL
# B3: poly(A) binding protein PAB8 (protein, UniProt Q9FXA2 1-671)
# chain: MAQIQHQGQNANGGVAVPGAAAAEAAAAAAGAAAAAAGAAQQGTTSLYVGDLDATVTDSQLFEAFTQAGQVVSVRVCRDMTTRRSLGYGYVNYATPQDASRALNELNFMALNGRAIRVMYSVRDPSLRKSGVGNIFIKNLDKSIDHKALHETFSAFGPILSCKVAVDPSGQSKGYGFVQYDTDEAAQGAIDKLNGMLLNDKQVYVGPFVHKLQRDPSGEKVKFTNVYVKNLSESLSDEELNKVFGEFGVTTSCVIMRDGEGKSKGFGFVNFENSDDAARAVDALNGKTFDDKEWFVGKAQKKSERETELKQKFEQSLKEAADKSQGSNLYVKNLDESVTDDKLREHFAPFGTITSCKVMRDPSGVSRGSGFVAFSTPEEATRAITEMNGKMIVTKPLYVALAQRKEDRKARLQAQFSQMRPVNMPPAVGPRMQMYPPGGPPMGQQLFYGQGPPAMIPQPGFGYQQQLVPGMRPGGSPMPNFFMPMMQQGQQQQQQQQQQQRPGGGRRGALPQPQQPSPMMQQQMHPRGRMYRYPQRDVNTMPGPTQNMLSVPYDVSSGGGVHHRDSPTSQPVPIVALATRLANAAPEQQRTMLGENLYPLVEQLEPESAAKVTGMLLEMDQTEVLHLLESPEALKAKVTEAMDVLRSVAQQQAGGAADQLASLSLGDNIVP
# Columns and labels:
# Experiment in all cases: affinity purification with mass spectrometry
# [1] = target: T1, ECT1-FLAG-TFP (A. thaliana) (UniProt Q3MK94)
# T1 sequence: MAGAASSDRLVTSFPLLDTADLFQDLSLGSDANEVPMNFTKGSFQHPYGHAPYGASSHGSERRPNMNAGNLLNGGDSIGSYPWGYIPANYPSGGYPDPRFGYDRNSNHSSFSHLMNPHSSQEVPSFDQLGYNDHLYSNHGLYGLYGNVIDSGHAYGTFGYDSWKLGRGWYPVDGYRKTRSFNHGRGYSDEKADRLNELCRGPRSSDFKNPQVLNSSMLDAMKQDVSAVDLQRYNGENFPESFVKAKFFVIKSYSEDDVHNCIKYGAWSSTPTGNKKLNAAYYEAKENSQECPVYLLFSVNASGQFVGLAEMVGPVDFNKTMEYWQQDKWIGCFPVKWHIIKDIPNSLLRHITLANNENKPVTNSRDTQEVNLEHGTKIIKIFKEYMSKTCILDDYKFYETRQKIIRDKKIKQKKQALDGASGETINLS
# [2] = target: T2, ECT2^WT-mCherry (A. thaliana) (UniProt Q9LJE5)
# T2 sequence: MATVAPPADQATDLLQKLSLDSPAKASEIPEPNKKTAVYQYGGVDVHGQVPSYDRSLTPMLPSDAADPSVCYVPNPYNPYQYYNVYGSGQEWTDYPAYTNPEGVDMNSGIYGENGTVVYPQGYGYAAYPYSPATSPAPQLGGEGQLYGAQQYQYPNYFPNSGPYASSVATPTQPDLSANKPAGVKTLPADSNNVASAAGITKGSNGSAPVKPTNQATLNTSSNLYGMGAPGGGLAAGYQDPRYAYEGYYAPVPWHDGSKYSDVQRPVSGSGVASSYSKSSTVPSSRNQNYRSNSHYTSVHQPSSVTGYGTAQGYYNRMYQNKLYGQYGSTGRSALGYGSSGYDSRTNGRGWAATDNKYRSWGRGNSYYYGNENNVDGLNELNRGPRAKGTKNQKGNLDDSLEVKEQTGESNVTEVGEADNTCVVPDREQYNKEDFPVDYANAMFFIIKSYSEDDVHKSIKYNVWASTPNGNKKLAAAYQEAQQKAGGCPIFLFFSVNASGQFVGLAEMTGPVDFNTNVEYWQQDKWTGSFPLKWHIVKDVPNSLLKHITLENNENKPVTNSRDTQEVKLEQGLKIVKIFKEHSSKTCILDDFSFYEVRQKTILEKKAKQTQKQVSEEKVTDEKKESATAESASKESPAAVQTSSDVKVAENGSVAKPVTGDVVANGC
# [3] = target: ECT2^ΔN3.2.2-mCherry (A. thaliana) (UniProt Q9LJE5)
# ECT3-Venus (A. thaliana) = target: T3, ECT3-Venus (A. thaliana) (UniProt F4K1Z0)
# T3 sequence: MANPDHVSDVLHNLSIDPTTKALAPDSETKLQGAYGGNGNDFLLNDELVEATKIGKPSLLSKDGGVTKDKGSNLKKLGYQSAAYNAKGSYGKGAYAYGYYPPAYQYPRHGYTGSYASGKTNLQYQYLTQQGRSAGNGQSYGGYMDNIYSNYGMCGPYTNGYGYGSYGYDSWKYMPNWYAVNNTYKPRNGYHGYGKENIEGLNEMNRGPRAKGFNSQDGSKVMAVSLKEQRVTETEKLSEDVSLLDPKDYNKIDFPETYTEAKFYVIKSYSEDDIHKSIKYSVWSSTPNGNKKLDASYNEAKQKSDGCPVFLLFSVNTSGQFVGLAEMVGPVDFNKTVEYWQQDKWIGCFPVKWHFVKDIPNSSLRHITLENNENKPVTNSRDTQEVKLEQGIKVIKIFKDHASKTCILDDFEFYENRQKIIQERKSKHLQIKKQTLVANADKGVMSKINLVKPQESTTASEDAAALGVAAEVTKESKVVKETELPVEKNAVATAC
# HA-ECT2 (A. thaliana) = target: T4, HA-ECT2 (A. thaliana) (UniProt Q9LJE5)
# T4 sequence: T2 sequence
Binder,binding [1],binding [2],binding [3],binding (ECT3-Venus (A. thaliana)),binding (HA-ECT2 (A. thaliana))
B1,no binding,binds,no binding,binds,binds
B2,no binding,binds,no binding,binds,binds
B3,no binding,binds,no binding,binds,binds

# From doi:10.1101/2023.07.03.547513
